# Among all 360,000 compounds or so, about 7,500 (2.1%) were called active. This list was built around the results that the source calls inconclusive (neither active nor inactive); the mix of calls is not that of the screen. The call rests on the fitted dose curve; in most records, active means well fitted inhibition curve with a large enough effect; inconclusive means small, poorly fitted or top-dose-only effect, or effect the other way; inactive means flat fitted curve, though single readings scatter. Potencies of inconclusive entries are doubtful fits and often do not repeat.
# Assay: Nrf2 qHTS screen for inhibitors; further: nearly all actives have a fitted effect of over 60% in size
# Settings: A549 ARE-Fluc reporter, luciferase luminescence, 18-24 h; activity change, negative = inhibition: at 46 µM (top of the series)
# Procedure, shortened: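 Two sequential reads on A549 ARE_Fluc cells exposed to compound for 18-24 h: a CellTiter-Fluor fluorescence read for viability, then a luciferase luminescence read for Nrf2/ARE activity.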
# On the % scale 0 is the no-effect control and ±100 the full control effect; potency means the concentration at half of the fitted maximal effect.
SMILES,Potency,"activity change, negative = inhibition"
CCOC(=O)c1ccc(N2C(=O)c3[nH]nc(-c4ccccc4)c3C2c2ccc(C(C)C)cc2)cc1 (stereo unspecified),"inconclusive: 20.6 µM [falling, single point]",–
Cc1ccc(NP(=O)(Oc2ccccc2F)Oc2ccccc2F)cc1,"inconclusive: 29.1 µM [falling, single point]",–
Cc1ccc(NC(=O)C2CCN(C(=O)c3cnn(-c4ccccc4)c3-n3cccc3)CC2)cc1Cl,"inconclusive: 29.1 µM [falling, single point]",–
C1CCCN(C2CCNCC2)CC1,"inconclusive: 25.9 µM [activator, partial curve, poor fit]",–
O=C(COc1ccc(Cl)cc1)N1CCN(C2CCCC2)CC1,–,inactive: 25.8%
CC(O)(CS(=O)(=O)c1cccc(C(F)(F)F)c1)C(=O)Nc1cccc(C(F)(F)F)c1 (stereo unspecified),"inconclusive: 23.1 µM [falling, partial curve, poor fit]",–
COC1C(O)C(C)OC(OC2CCC3(C=O)C(CCC4C3CCC3(C)C(C5=CC(=O)OC5)CCC43O)C2)C1O (stereo unspecified),active: 0.0231 µM,–
COC(=O)C1=C(c2cccc(OCc3ccccc3)c2)C[C@@H]2CC[C@H]1N2C(=O)NCc1ccccc1,"inconclusive: 14.6 µM [falling, partial curve, poor fit]",–
CCCC/C(=N/O)c1c(C)[nH]c2ccccc12,–,inactive: -13.5%
COC(=O)C1=C(c2cccc(OCc3ccccc3)c2)C[C@@H]2CC[C@H]1N2C(=O)NCc1ccc(C(C)(C)C)cc1,"inconclusive: 32.6 µM [falling, single point]",–
O=C(N/N=C/c1c(O)n(-c2ccccc2)c(=S)[nH]c1=O)c1ccccc1,"inconclusive: 0.411 µM [activator, full curve, poor fit]",–
CN(C)c1ccc(-[n+]2c(-c3ccccc3)cc(-c3ccccc3)cc2-c2ccccc2)cc1,active: 2.91 µM,–
CC1CCC(C(C)C)C(OC(=O)COC(=O)c2ccccc2N)C1 (stereo unspecified),–,inactive: 12.3%
CCOc1ccc(CN(CCc2ccc3c(c2)OCO3)Cc2cccc(Br)c2)cc1,–,inactive: 8.3%
CCOc1ccc(CNC(=O)CSc2c3c(nc4cc(Cl)ccc24)CCCC3)cc1,"inconclusive: 20.6 µM [falling, single point]",–
CN(C)C(=O)Oc1ccc(OCc2nc3ccccc3[nH]2)cc1,"inconclusive: 6.51 µM [activator, single point]",–
COc1ccc(N2CCN(C(=O)c3cc(=O)[nH]c4ccccc34)CC2)cc1,"inconclusive: 1.3 µM [activator, full curve, poor fit]",–
CC12CC[C@H]3[C@@H](CCC4(O)C[C@H](O)CCC34/C=N/NC(=O)c3ccc(O)cc3)C1(O)CCC2C1=CC(=O)OC1 (stereo partly specified),–,inactive: -29.6%
O=C(CCC(=O)N1C[C@H]2C[C@@H](C1)c1cccc(=O)n1C2)NCc1ccccc1C(F)(F)F,–,inactive: -12.9%
CCc1ccc(NP(=O)(Oc2ccccc2F)Oc2ccccc2F)cc1,–,inactive: 1.97%
O=C1NC(=O)C(CCOc2ccccc2)(CCc2ccccc2)C(=O)N1,–,inactive: -22.3%
COc1cc(OC)cc(-c2sc3ccc(OC)cc3c2-c2ccc(OCCN3CCOCC3)cc2)c1,"inconclusive: 32.6 µM [falling, partial curve, poor fit]",–

# Five records drawn at random from those above:
SMILES,Potency,"activity change, negative = inhibition"
C1CCCN(C2CCNCC2)CC1,"inconclusive: 25.9 µM [activator, partial curve, poor fit]",–
COC(=O)C1=C(c2cccc(OCc3ccccc3)c2)C[C@@H]2CC[C@H]1N2C(=O)NCc1ccc(C(C)(C)C)cc1,"inconclusive: 32.6 µM [falling, single point]",–
COc1ccc(N2CCN(C(=O)c3cc(=O)[nH]c4ccccc34)CC2)cc1,"inconclusive: 1.3 µM [activator, full curve, poor fit]",–
O=C(N/N=C/c1c(O)n(-c2ccccc2)c(=S)[nH]c1=O)c1ccccc1,"inconclusive: 0.411 µM [activator, full curve, poor fit]",–
CC(O)(CS(=O)(=O)c1cccc(C(F)(F)F)c1)C(=O)Nc1cccc(C(F)(F)F)c1 (stereo unspecified),"inconclusive: 23.1 µM [falling, partial curve, poor fit]",–

# More compounds

SMILES,Potency,"activity change, negative = inhibition"
O=C(Nc1ccc(Cl)c(C(F)(F)F)c1)c1ccc2c(c1)CCN2S(=O)(=O)c1ccccc1,"inconclusive: 20.6 µM [falling, single point]",–
O=C(O)CNC(=O)C(CS)Cc1ccccc1 (stereo unspecified),active: 10.3 µM,–
Cc1c(C=O)c2ccccc2n1Cc1ccccc1F,–,inactive: 0.244%
COC(=O)C1=C(c2ccc(Cl)c(C(F)(F)F)c2)C[C@@H]2CC[C@H]1N2C(=O)N1CCC(C)CC1,"inconclusive: 16.4 µM [falling, single point]",–
CCc1ccc(N(CC)C(=O)CCn2cnc3onc(-c4ccc(F)cc4)c3c2=O)cc1,"inconclusive: 25.9 µM [falling, single point]",–
CC12CC[C@H]3[C@@H](CCC4(O)C[C@H](O)CCC34/C=N/NC(=O)c3ccccc3O)C1(O)CCC2C1=CC(=O)OC1 (stereo partly specified),"inconclusive: 5.8 µM [activator, partial curve, poor fit]",–
CCOC(=O)c1ccc(NC(=O)CSc2ccc(-c3cccnc3)nn2)cc1,"inconclusive: 29.1 µM [falling, single point]",–
COC(=O)C1=C(c2ccccc2)C[C@@H]2CC[C@H]1N2C(=O)NCc1ccc(C(F)(F)F)cc1,"inconclusive: 29.1 µM [falling, single point]",–
CCOc1ccc(CN(CCCl)CCCl)cc1C(=O)OC,"inconclusive: 16.4 µM [falling, single point]",–
CCOc1ccc(CCNC(=O)c2cnc3sc(N4CCCC4)nn3c2=O)cc1,active: 11.6 µM,–
CCCNC(=O)c1c(N)n(Cc2ccco2)c2nc3ccccc3nc12,–,inactive: -10%
COc1cc(C(=O)NN=Cc2ccc(N(CCCl)CCCl)cc2)cc(OC)c1OC,–,inactive: -2.17%
COc1ccccc1CN1CCN(C(=O)COc2cccc(C)c2)CC1,"inconclusive: 6.51 µM [activator, single point]",–
COC(=O)C1=C(c2ccc(Cl)c(C(F)(F)F)c2)C[C@@H]2CC[C@H]1N2C(=O)NCc1ccco1,–,inactive: -8.87%
CCOC(=O)c1c(/N=C/C2C(=O)NC(=O)NC2=O)sc2c1CCC2,–,inactive: -8.3%
COc1ccccc1OP(=O)(Nc1ccc(Br)cc1)Oc1ccccc1OC,"inconclusive: 23.1 µM [falling, single point]",–
CC(C)C1C(c2ccccc2)N(C)C(c2ccccc2)CC1(O)c1ccccc1 (stereo unspecified),"inconclusive: 29.1 µM [falling, single point]",–
COc1cc2c(c(OC)c1OC)-c1ccc(OC)c(=O)cc1[C@@H](NC(C)=O)CC2,"inconclusive: 0.058 µM [activator, full curve]",–
Cc1ccc(/C(CSc2nccn2-c2ncc(C(F)(F)F)cc2Cl)=N\O)cc1,"inconclusive: 20.6 µM [falling, single point]",–
O=C1NC(=O)C2(Cc3ccccc3N3CCOCC32)C(=O)N1c1ccccc1 (stereo unspecified),–,inactive: 6.06%
CC(=O)OC[C@]12CCC(C)=C[C@H]1O[C@@H]1[C@H](O)[C@@H](OC(C)=O)[C@@]2(C)[C@]12CO2,active: 0.0184 µM,–
CCCCCn1c(=O)c(C(=O)NCCc2ccccc2)c(O)c2ccccc21,"inconclusive: 20.6 µM [falling, single point]",–

SMILES,Potency,"activity change, negative = inhibition"
CN1C2CCC1C(C(=O)O)C(O)C2 (stereo unspecified),–,inactive: 5.26%
c1ccc(-c2nc(N3CCOCC3)s[n+]2-c2ccccc2)cc1,"inconclusive: 10.3 µM [activator, partial curve]",–
COc1ccc(C(=O)Nc2ccc(S(=O)(=O)N(Cc3ccccc3)c3ccccc3)cc2)cc1,active: 7.31 µM,–
Cn1c(O)c(Cc2cccc(Cl)c2Cl)c(=O)n(C)c1=O,–,inactive: 1.87%
CN(Cc1ccc(OC(F)F)cc1)C(=O)c1ccccc1Sc1ccccc1C#N,"inconclusive: 16.4 µM [falling, single point]",–
COc1ccc(C(=O)C2CCCN(Cc3cnc(C)s3)C2)c(OC)c1 (stereo unspecified),active: 20.6 µM,–
Cc1cc(C(=O)Nc2ccc3c(c2)OCCO3)nn1C(C)(C)C,"inconclusive: 2.59 µM [activator, full curve]",–
COc1cc(Cc2ccc(N)c(OC)c2)ccc1N,"inconclusive: 32.6 µM [activator, partial curve, poor fit]",–
Cc1ccc(NC(=O)CN(C)CC(=O)Nc2cccc(F)c2)cc1[N+](=O)[O-],active: 11.6 µM,–
CC(C)OP(=O)(OC(C)C)C(NCc1ccccc1)c1ccccc1 (stereo unspecified),"inconclusive: 32.6 µM [falling, single point]",–
Cc1ccc(S(=O)(=O)Nc2cc(C(=O)N3CCC4(CC3)OCCO4)ccc2N2CCCCC2)cc1,"inconclusive: 23.1 µM [falling, partial curve, poor fit]",–
CC(=NCc1ccc2c(c1)OCO2)c1c(O)n(-c2ccccc2)c(=O)[nH]c1=O,"inconclusive: 6.51 µM [falling, partial curve]",–
CCOC(=O)c1ccc(N2C(=O)c3n[nH]c(-c4cccs4)c3C2c2ccc(OC)cc2OC)cc1 (stereo unspecified),"inconclusive: 29.1 µM [falling, single point]",–
CC1=C(C)CC2(C(=O)NC(=S)NC2=O)C(C)C1 (stereo unspecified),–,inactive: 4.78%
O=C(CNC(=O)c1cccc(S(=O)(=O)N2CCc3ccccc32)c1)Nc1ccccc1Br,"inconclusive: 6.51 µM [activator, partial curve]",–
CC(Sc1ncnc2sccc12)C(=O)Nc1ccc(S(=O)(=O)N2CCOCC2)cc1 (stereo unspecified),"inconclusive: 32.6 µM [falling, single point]",–
COC(=O)C(O)(c1ccc(NC(=S)NC(=O)c2ccc(Cl)cc2Cl)cc1)C(F)(F)F (stereo unspecified),"inconclusive: 29.1 µM [falling, single point]",–
O=c1c2ccccc2nc(/C=C/c2ccc([N+](=O)[O-])o2)n1-c1ccc(O)cc1,"inconclusive: 13 µM [falling, single point]",–
CCN(CC(=O)Nc1ccc(C#N)c(Cl)c1)CC(=O)NC(C)(C)C,"inconclusive: 10.3 µM [falling, partial curve, poor fit]",–
COc1ccc(Cn2c(O)c(C=NCCCn3ccnc3)c(=O)[nH]c2=O)cc1,"inconclusive: 29.1 µM [activator, single point]",–
COc1ccc(C(=O)NCc2cc3ccccc3n2C)cc1,"inconclusive: 20.6 µM [activator, partial curve]",–

# — PubChem BioAssay AID504444 (National Center for Advancing Translational Sciences (NCATS), 2011)
